Results taken from paper PMC10907978.
Results are given in words; binding and its absence hold for the method and conditions named. In cells and extracts the contact can be indirect. Some entries that bind do so weakly or less than the wild type.

Target: HIF1α (hypoxia inducible factor-1 alpha), endogenous (human (endogenous in HepG2 and PLC/PRF/5)) (UniProt Q16665)
Assay: co-IP; HCC cells transfected with control or Flag-CDK5 plasmids (dose series); endogenous HIF1α pulled down, western blot

binding: binds
Substance: Flag-CDK5 (cyclin dependent kinase 5) (from UniProt Q00535 1-292) (enzyme)
